# Results: PubChem BioAssay AID540276 (National Center for Advancing Translational Sciences (NCATS), 2011)
# Several values for one entry are separate records, joined by “and”; a condition that tells them apart may be missing. Equal entries are not always repeated. Hit rate of the full screen: of about 300,000 compounds, about 5,400 (1.8%) were called active. The shares of active, inactive and inconclusive entries below differ from those in the screen. Calls follow the shape of the full dose curve; tested in HEK293 cells. A potency beside an inconclusive call is a rough fit, not a confirmed value.
# Assay: qHTS for inhibitors of binding or entry into cells for Marburg Virus
# Conditions: Marburg virus pseudotyped entry inhibition, cell reporter; series mostly up to 37.8 µM
# Potency is read from the fitted curve at half-maximal effect.
row,Structure (SMILES),Potency
1,COc1ccc(C(=O)NCCn2cc(SCC(=O)Nc3ccccc3)c3ccccc32)cc1OC,inactive
2,CN(CC(=O)Nc1ccc(Cl)cc1)C(=O)CCc1c[nH]c2ccccc12,inactive
3,CN(C)CCOC(=O)NCC12CC3CC(CC(C3)C1)C2,"inconclusive: 35.5 µM [inhibitor, single point]"
4,O=C(OCC(=O)c1cccs1)C1=COCCO1,"inconclusive: 17.8 µM [activator, partial curve, poor fit]"
5,S=C(c1ccc2c(c1)OCO2)N1CCCC1,"inconclusive: 14.1 µM [activator, single point]"
6,CCOC(=O)C1CCN(C(=O)COc2ccc(Br)cc2C)CC1,"inconclusive: 1.12 µM [activator, partial curve, poor fit]"
7,O=C(CSc1nnc2c(Cl)cc(Cl)cn12)N1CCN(S(=O)(=O)c2ccccc2)CC1,"inconclusive: 0.231 µM [activator, single point]"
8,N#C/C(=C\c1ccc(O)c(O)c1)C(N)=S,"inconclusive: 2.51 µM [activator, single point]"
9,COCCNC(=O)CSc1cc(=O)n(C)c2cc(Cl)ccc12,inactive
10,O=C(CCSc1ccc(Cl)cc1)N1CCN(c2ncccn2)CC1,"inconclusive: 35.5 µM [inhibitor, single point]"
11,CN(C)CCNc1ncnc2c1sc1nc(N3CCCC3)c3c(c12)CC(C)(C)OC3,active: 7.94 µM
12,O=C(OCc1cccs1)c1ccccc1NS(=O)(=O)c1ccc2c(c1)OCCO2,"inconclusive: 14.1 µM [inhibitor, partial curve, poor fit]"
13,COc1ccc(C(=O)Nc2ccccc2-c2nnn(CC(=O)N3CCOCC3)n2)cc1,inactive
14,O=C1c2ccccc2-c2nc3ccccc3cc21,"inconclusive: 11.2 µM [inhibitor, single point]"
15,COc1cc2c(cc1OC)C(C(=O)O)C(c1cc(Br)c(O)c(OC)c1)N(C)C2=O (stereo unspecified),inactive
16,CC1CCN(Cc2cnc(Cl)s2)CC1,"inconclusive: 15.8 µM [activator, single point]"
17,COc1ccc(C(=O)NC2=NCCS2)c(OC)c1,"inconclusive: 7.08 µM [inhibitor, partial curve, poor fit]"
18,CCOC(=O)c1c(CN(C)C)oc2cc(CN(C)C)c(O)c(CSc3ccccc3)c12,active: 10 µM
19,O=C1C(C2=NC(c3ccccn3)C3C(=O)N(c4ccc(OC(F)(F)F)cc4)C(=O)C23)=C(O)c2ccccc21 (stereo unspecified),"inconclusive: 3.98 µM [inhibitor, partial curve, poor fit]"
20,CCOC(=O)N1CCN(/C=C(\C#N)c2nc3ccccc3s2)CC1,inactive
21,CCOC(=O)C1CCCN(C(=O)CSc2ccc(Br)cc2)C1 (stereo unspecified),inactive
22,O=S(=O)(Nc1ccc(O)c(Sc2nc3ccccc3s2)c1)c1cccc2ccccc12,"inconclusive: 35.5 µM [inhibitor, single point]"

# Quoted at random: 4 records from the list.
row,Structure (SMILES),Potency
1,COc1ccc(C(=O)NCCn2cc(SCC(=O)Nc3ccccc3)c3ccccc32)cc1OC,inactive
9,COCCNC(=O)CSc1cc(=O)n(C)c2cc(Cl)ccc12,inactive
17,COc1ccc(C(=O)NC2=NCCS2)c(OC)c1,"inconclusive: 7.08 µM [inhibitor, partial curve, poor fit]"
15,COc1cc2c(cc1OC)C(C(=O)O)C(c1cc(Br)c(O)c(OC)c1)N(C)C2=O (stereo unspecified),inactive

# Additional compounds.

row,Structure (SMILES),Potency
1,COc1ccccc1CCNC(=O)c1ccc(NC(=O)N2CC(C)Sc3ccccc32)cc1 (stereo unspecified),"inconclusive: 0.562 µM [inhibitor, full curve, poor fit]"
2,CCCCNC(=O)CNC(=S)N(Cc1ccc(C)cc1)Cc1ccco1,"inconclusive: 35.5 µM [inhibitor, single point]"
3,CN1CCC(C2(O)c3ccccc3CCc3ccccc32)CC1,active: 18.4 µM
4,NC1=Nc2ccccc2Oc2ccccc21,"inconclusive: 29.1 µM [inhibitor, single point]"
5,COc1ccc(S(=O)(=O)Oc2ccc3ccccc3c2)cc1,inactive
6,C(=N\Nc1nc(-c2ccccc2)cs1)/c1ccco1,"inconclusive: 1 µM [activator, single point]"
7,COc1cc(CNCCO)cc(Cl)c1OCc1ccccc1Cl,"inconclusive: 22.4 µM [inhibitor, single point]"
8,C[N+]1(C)C2CCC1CC(OC(=O)c1c[nH]c3ccccc13)C2 (stereo unspecified),"inactive and inconclusive: 35.5 µM [inhibitor, single point]"
9,COc1ccc(OCCOc2ccc(C)nc2[N+](=O)[O-])cc1,"inconclusive: 0.58 µM [activator, full curve, poor fit]"
10,Cc1cc(C)c(OCC(=O)N(Cc2ccc(N(C)C)cc2)C2CCS(=O)(=O)C2)c(C)c1 (stereo unspecified),"inconclusive: 35.5 µM [inhibitor, single point]"
11,Cc1cc(C)nc(SCc2nc3ncccn3c2Br)n1,"inconclusive: 3.55 µM [activator, single point]"
12,Cc1cc(Oc2nc3c(C)cccn3c(=O)c2/C=C(\C#N)S(=O)(=O)c2ccccc2)ccc1Cl,"inconclusive: 2.82 µM [inhibitor, partial curve]"
13,CC(C)(C)C(=O)Cn1c(=O)n(CCCCCC(=O)NCc2ccc3c(c2)OCO3)c(=O)c2sccc21,inactive
14,O=C(COc1ccc2c(c1)OCO2)Nc1ccc2c(c1)oc1ccccc12,"inconclusive: 35.5 µM [inhibitor, single point]"
15,Cc1cc(Cl)c(S(=O)(=O)N2CCN(c3ccc(F)cc3)CC2)cc1OCC(N)=O,inactive
16,CN(C)CCNc1oc(COc2ccc(-c3ccccc3)cc2)nc1C#N,"inconclusive: 23.1 µM [inhibitor, single point]"
17,O=C(/C=C/c1ccccc1)N1CCC(Cc2ccccc2)CC1,"inconclusive: 0.0891 µM [activator, full curve, poor fit]"
18,CC(C)c1c(C(=O)N/N=C/c2cccc(OCc3ccc(F)cc3)c2)nnn1-c1nonc1N,"inconclusive: 20 µM [inhibitor, partial curve, poor fit]"
19,CCCCCC(=O)N1C[C@@H](O)[C@H](n2cc(COC(=O)c3ccccc3)nn2)C[C@H]1c1ccccc1,"inconclusive: 4.99 µM [activator, partial curve]"
20,c1ccc(-c2noc(CCC3CCCC3)n2)cc1,inactive
21,O=C(/C=C/c1ccc2c(c1)OCO2)NCCSCc1cccc(Cl)c1,"inconclusive: 3.16 µM [inhibitor, single point]"
22,O=C(C1NN2C(NC(c3cccs3)CC2C(F)(F)F)C1Cl)N1CCCC2CCCCC21 (stereo unspecified),"inconclusive: 14.6 µM [activator, single point]"

row,Structure (SMILES),Potency
1,COc1ccc(CCNC(=O)c2cc(C(=O)c3cc(Cl)ccc3O)cn(CCc3ccc(OC)cc3)c2=O)cc1,"inconclusive: 11.2 µM [inhibitor, single point]"
2,CC(=O)c1ccc(NC(=O)c2ccc(C)c(Br)c2)cc1,"inconclusive: 7.08 µM [inhibitor, partial curve, poor fit]"
3,O=[N+]([O-])c1cc(S(=O)(=O)N2CCCCC2)ccc1NCc1cccc(Cl)c1,"inconclusive: 35.5 µM [inhibitor, single point]"
4,C/C(=N\NC(=O)c1c[nH]c2ccccc12)c1ccc(C)o1,"inconclusive: 32.6 µM [inhibitor, single point]"
5,CCCC1C(=O)Nc2ccccc2N1C(=O)c1ccc(C(C)(C)C)cc1 (stereo unspecified),"inconclusive: 20 µM [inhibitor, partial curve, poor fit]"
6,Cc1ccc(NC(=O)Cn2c(O)c(N=NC(N)=O)c3ccccc32)cc1,"inconclusive: 10 µM [inhibitor, partial curve, poor fit]"
7,O=C(Nc1ccccc1)c1nnsc1S(=O)c1ccc(Cl)cc1 (stereo unspecified),"inconclusive: 8.91 µM [inhibitor, partial curve, poor fit]"
8,Clc1ccc2ncc(-c3nnnn3-c3ccccc3)c(-c3ccccc3)c2c1,"inconclusive: 23.1 µM [inhibitor, partial curve, poor fit]"
9,CCN1CCCc2cc(CN(CCN3CCOCC3)C(=S)Nc3ccc(C)cc3)ccc21,"inconclusive: 14.1 µM [inhibitor, partial curve, poor fit]"
10,COc1ccccc1OCc1nc(C#N)c(NCc2ccco2)o1,inactive
11,CCN1CC(CN(C)Cc2nc(Cc3ccccc3)no2)CC1=O (stereo unspecified),"inconclusive: 1.41 µM [activator, single point]"
12,COc1ccccc1OCCSc1nc2ccccc2n1CC(N)=O,inactive
13,O=C1Cc2cc(CCN3CCN(c4nsc5ccccc45)CC3)c(Cl)cc2N1,"inconclusive: 11.6 µM [inhibitor, partial curve, poor fit]"
14,O=C(Nc1cc([N+](=O)[O-])ccc1O)c1cccc([N+](=O)[O-])c1,"inconclusive: 10 µM [activator, partial curve, poor fit]"
15,N#Cc1c2n(c3c(=O)n(Cc4ccc(Cl)cc4)cnc13)CCCCC2,"inconclusive: 2.82 µM [activator, partial curve]"
16,Cn1cc(CCC(=O)N2CCCC(C(=O)c3cccc4ccccc34)C2)cn1 (stereo unspecified),inactive
17,CCc1ccc(NC(=O)NNC(=O)CCc2ccccc2)cc1,"inconclusive: 22.4 µM [activator, single point]"
18,COC(c1ccccc1)c1c(-c2ccccc2)nn(C)c1Cl (stereo unspecified),inactive
19,CCCCOc1ccc(CNC(=S)N/N=C/c2ccc(OC)c(OC)c2)cc1,"inconclusive: 22.4 µM [inhibitor, single point]"
20,Cc1cc(C)cc(NC(=O)CSc2oc(-c3ccccc3)nc2S(=O)(=O)c2ccccc2)c1,"inconclusive: 5.62 µM [inhibitor, single point]"
21,Cc1ccc(C)c(C2=CSC3=NCCN23)c1,"inconclusive: 25.1 µM [inhibitor, partial curve, poor fit]"
22,O=C(O)c1cc(N/N=C/c2ccc(-c3ccc(F)cc3)o2)ccc1Cl,"inconclusive: 6.31 µM [activator, single point]"
